Reference: the supplement of paper PMC12823440, “Inhibitors supercharge kinase turnover through native proteolytic circuits” (Nature, 2025)
Structures can show the parent of a compound that is named as a salt. This is one part of the list. The calls rarely recur for the same compound in another form.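 In K562 cells expressing nanoluciferase-fused kinases, luminescence was recorded at 4 h intervals between 2 and 18 h, normalized as percent of control with DMSO at 100% and a positive control at 0%. A significant (2 sigma) signal drop marks a time point as decreased. The authors' rule for a hit is not shown and takes in more than the number of time points.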

By UniProt entry, the sequences of proteins in these tests, tags left out.
UniProt P29317, whole entry: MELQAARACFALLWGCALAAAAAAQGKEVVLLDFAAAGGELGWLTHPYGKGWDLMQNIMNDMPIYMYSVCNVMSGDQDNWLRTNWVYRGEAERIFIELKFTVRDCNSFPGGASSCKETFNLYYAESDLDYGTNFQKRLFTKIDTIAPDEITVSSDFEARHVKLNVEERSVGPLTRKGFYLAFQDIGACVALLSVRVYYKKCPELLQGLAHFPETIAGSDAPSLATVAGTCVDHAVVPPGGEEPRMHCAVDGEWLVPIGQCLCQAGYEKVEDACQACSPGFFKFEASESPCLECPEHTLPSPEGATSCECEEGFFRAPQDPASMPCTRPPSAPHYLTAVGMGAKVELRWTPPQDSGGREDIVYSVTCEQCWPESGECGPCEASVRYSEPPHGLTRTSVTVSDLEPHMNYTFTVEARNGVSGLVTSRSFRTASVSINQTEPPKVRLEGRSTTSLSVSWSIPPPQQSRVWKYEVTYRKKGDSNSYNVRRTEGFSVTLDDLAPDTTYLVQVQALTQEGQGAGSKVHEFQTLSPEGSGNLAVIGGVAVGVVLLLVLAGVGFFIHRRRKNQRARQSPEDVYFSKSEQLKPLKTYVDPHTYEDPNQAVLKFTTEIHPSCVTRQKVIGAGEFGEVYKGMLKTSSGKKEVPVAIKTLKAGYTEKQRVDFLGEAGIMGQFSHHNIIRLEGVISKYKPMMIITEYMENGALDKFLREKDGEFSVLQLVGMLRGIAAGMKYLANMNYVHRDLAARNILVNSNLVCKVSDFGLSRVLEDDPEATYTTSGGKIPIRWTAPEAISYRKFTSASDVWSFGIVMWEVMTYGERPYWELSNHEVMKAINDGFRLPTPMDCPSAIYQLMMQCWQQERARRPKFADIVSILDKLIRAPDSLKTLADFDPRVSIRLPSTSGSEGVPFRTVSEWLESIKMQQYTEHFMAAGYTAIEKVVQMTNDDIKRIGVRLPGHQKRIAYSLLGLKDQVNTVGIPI
UniProt P21860, whole entry: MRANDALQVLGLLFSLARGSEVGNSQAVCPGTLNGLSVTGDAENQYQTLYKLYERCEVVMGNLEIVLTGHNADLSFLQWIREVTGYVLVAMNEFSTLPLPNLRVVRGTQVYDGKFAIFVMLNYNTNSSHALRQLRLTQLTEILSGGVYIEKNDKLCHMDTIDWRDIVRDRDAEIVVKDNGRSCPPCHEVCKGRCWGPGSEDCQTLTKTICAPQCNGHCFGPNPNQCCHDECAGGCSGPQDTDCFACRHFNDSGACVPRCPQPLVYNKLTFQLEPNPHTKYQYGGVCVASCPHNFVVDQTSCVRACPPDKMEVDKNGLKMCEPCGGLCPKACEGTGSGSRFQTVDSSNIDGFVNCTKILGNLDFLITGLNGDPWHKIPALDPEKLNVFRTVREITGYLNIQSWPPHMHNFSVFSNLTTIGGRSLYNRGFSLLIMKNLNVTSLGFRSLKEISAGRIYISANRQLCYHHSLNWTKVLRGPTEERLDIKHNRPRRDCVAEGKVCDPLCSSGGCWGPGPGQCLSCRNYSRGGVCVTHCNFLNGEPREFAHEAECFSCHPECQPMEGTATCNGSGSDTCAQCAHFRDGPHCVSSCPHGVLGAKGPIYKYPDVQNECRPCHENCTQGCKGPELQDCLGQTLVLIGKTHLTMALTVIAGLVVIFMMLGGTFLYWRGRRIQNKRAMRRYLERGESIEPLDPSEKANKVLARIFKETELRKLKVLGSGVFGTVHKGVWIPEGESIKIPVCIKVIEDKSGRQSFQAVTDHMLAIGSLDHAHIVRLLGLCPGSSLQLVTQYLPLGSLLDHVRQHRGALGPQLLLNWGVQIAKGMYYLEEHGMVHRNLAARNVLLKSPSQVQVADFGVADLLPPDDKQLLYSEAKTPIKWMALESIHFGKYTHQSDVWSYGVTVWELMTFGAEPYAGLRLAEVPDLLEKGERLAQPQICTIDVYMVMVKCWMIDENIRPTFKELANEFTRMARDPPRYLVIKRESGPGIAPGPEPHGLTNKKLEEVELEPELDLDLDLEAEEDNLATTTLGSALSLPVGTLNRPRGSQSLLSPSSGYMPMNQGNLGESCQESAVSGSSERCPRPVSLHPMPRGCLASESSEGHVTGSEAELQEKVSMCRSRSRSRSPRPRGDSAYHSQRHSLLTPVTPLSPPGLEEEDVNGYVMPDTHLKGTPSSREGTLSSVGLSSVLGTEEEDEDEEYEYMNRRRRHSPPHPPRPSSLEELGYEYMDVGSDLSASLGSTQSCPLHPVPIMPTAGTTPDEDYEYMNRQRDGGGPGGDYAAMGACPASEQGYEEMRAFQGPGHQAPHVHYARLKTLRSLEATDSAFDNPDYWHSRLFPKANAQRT
UniProt Q15303, whole entry R711C: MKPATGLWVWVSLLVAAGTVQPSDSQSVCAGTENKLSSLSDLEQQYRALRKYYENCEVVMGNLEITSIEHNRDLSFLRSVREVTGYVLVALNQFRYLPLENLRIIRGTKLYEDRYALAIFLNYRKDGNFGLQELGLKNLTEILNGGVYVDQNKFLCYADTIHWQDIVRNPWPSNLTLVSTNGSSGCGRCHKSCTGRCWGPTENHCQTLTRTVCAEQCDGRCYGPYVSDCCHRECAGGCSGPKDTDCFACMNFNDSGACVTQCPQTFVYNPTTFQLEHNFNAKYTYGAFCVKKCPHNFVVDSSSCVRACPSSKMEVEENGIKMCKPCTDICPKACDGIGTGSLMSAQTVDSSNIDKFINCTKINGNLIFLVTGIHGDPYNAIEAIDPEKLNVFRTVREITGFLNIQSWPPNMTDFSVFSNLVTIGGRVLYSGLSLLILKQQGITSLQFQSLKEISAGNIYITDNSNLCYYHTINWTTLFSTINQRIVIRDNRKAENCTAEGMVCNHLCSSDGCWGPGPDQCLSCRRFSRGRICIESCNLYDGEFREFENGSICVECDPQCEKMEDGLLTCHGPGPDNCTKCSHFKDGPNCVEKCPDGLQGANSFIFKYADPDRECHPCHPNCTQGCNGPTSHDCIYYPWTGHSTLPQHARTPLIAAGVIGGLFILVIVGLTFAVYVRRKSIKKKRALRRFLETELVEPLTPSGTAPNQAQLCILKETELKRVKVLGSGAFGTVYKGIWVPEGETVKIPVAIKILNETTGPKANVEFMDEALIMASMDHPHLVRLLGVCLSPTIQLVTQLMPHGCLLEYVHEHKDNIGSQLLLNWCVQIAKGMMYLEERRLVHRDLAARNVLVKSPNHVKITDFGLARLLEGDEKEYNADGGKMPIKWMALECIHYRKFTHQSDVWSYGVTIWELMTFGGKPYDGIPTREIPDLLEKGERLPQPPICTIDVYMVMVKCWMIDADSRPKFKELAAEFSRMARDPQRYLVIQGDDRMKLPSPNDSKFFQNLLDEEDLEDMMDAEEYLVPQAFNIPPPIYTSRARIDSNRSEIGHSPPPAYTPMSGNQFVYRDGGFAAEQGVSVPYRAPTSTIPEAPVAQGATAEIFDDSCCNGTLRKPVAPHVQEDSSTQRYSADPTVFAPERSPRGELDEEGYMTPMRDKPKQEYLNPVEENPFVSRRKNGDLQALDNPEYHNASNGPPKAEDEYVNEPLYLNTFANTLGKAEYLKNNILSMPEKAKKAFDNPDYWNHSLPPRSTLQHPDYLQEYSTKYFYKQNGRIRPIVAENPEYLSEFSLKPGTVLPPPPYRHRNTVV

Assays:
Assay in all cases: kinase-Nluc reporter destabilization hit call (1 = scored as downregulated) (binary); higher = compound decreases kinase abundance
Conditions in all cases: K562, 2-18 h
[1] = molecular target: EGFR (UniProt P00533)
[2] = molecular target: EGFR_G719S (UniProt P00533)
[3] = molecular target: EGFR_G719S_T790M (UniProt P00533)
[4] = molecular target: EGFR_L718V (UniProt P00533)
[5] = molecular target: EGFR_L858R (UniProt P00533)
[6] = molecular target: EGFR_L861Q (UniProt P00533)
[7] = molecular target: EGFR_T790M (UniProt P00533)
[8] = molecular target: EPHA2 (UniProt P29317)
[9] = molecular target: ERBB3 (UniProt P21860)
[10] = molecular target: ERBB4_R711C (clone: ERBB4_mut) (UniProt Q15303)

Measured: kinase-Nluc reporter destabilization hit call

CC(=O)c1c(C)c2cnc(Nc3ccc(N4CCNCC4)cn3)nc2n(C2CCCC2)c1=O [Palbociclib (isethionate)]
inactive: [1]; 10 µM 0 | [2]; 10 µM 0 | [3]; 10 µM 0 | [4]; 10 µM 0 | [5]; 10 µM 0 | [6]; 10 µM 0 | [7]; 10 µM 0 | [8]; 10 µM 0 | [9]; 10 µM 0 | [10]; 10 µM 0

Cn1cc(-c2cnc3ccc4ccc(CS(=O)(=O)NCc5ccccn5)cc4c(=O)c3c2)cn1 [MK-8033 (hydrochloride)]
inactive: [1]; 10 µM 0 | [2]; 10 µM 0 | [3]; 10 µM 0 | [4]; 10 µM 0 | [5]; 10 µM 0 | [6]; 10 µM 0 | [7]; 10 µM 0 | [8]; 10 µM 0 | [9]; 10 µM 0 | [10]; 10 µM 0

Cn1ncc(Cl)c1-c1cc(C(=O)N[C@H](CN)Cc2cccc(F)c2)sc1Cl [Afuresertib (hydrochloride)]
inactive: [1]; 10 µM 0 | [2]; 10 µM 0 | [3]; 10 µM 0 | [4]; 10 µM 0 | [5]; 10 µM 0 | [6]; 10 µM 0 | [7]; 10 µM 0 | [8]; 10 µM 0 | [9]; 10 µM 0 | [10]; 10 µM 0

CN(C)C/C=C/C(=O)Nc1cc2c(Nc3ccc(F)c(Cl)c3)ncnc2cc1O[C@H]1CCOC1 [Afatinib (dimaleate)]
inactive: [8]; 2.5 µM 0 | [9]; 2.5 µM 0 | [10]; 2.5 µM 0

COc1ncc(F)cc1CNc1ccc(Cc2c[nH]c3ncc(C)cc23)c(F)n1
inactive: [1]; 10 µM 0 | [2]; 10 µM 0 | [3]; 10 µM 0 | [4]; 10 µM 0 | [5]; 10 µM 0 | [6]; 10 µM 0 | [7]; 10 µM 0 | [8]; 10 µM 0 | [9]; 10 µM 0 | [10]; 10 µM 0

CC(C)(C)n1nc(-c2cccc3ccccc23)c2c(N)ncnc21 [1-Naphthyl PP1 (hydrochloride)]
inactive: [1]; 10 µM 0 | [2]; 10 µM 0 | [3]; 10 µM 0 | [4]; 10 µM 0 | [5]; 10 µM 0 | [6]; 10 µM 0 | [7]; 10 µM 0 | [8]; 10 µM 0 | [9]; 10 µM 0 | [10]; 10 µM 0

Cc1cccc(/C=N/Nc2cc(N3CCOCC3)nc(OCCc3ccccn3)n2)c1 [Apilimod]
inactive: [1]; 2.5 µM 0 | [2]; 2.5 µM 0 | [3]; 2.5 µM 0 | [4]; 2.5 µM 0 | [5]; 2.5 µM 0 | [6]; 2.5 µM 0 | [7]; 2.5 µM 0 | [8]; 2.5 µM 0 | [9]; 2.5 µM 0 | [10]; 2.5 µM 0

CCCC(=O)Nc1ncnc2c1ncn2[C@@H]1O[C@@H]2COP(=O)(O)O[C@H]2[C@H]1OC(=O)CCC [Bucladesine (sodium)]
inactive: [1]; 10 µM 0 | [2]; 10 µM 0 | [3]; 10 µM 0 | [4]; 10 µM 0 | [5]; 10 µM 0 | [6]; 10 µM 0 | [7]; 10 µM 0 | [8]; 10 µM 0 | [9]; 10 µM 0 | [10]; 10 µM 0

C[C@H](Nc1cc(-c2cnn(C)c2)cc(Nc2cnccn2)n1)c1ccc(F)cc1 [Ilginatinib]
inactive: [1]; 2.5 µM 0 | [2]; 2.5 µM 0 | [3]; 2.5 µM 0 | [4]; 2.5 µM 0 | [5]; 2.5 µM 0 | [6]; 2.5 µM 0 | [7]; 2.5 µM 0 | [8]; 2.5 µM 0 | [9]; 2.5 µM 0 | [10]; 2.5 µM 0

C/C=C1\C(=O)C[C@H]2[C@@H]3CCC4=CC(=O)CC[C@]4(C)[C@H]3CC[C@]12C [(Z)-Guggulsterone]
inactive: [1]; 10 µM 0 | [2]; 10 µM 0 | [3]; 10 µM 0 | [4]; 10 µM 0 | [5]; 10 µM 0 | [6]; 10 µM 0 | [7]; 10 µM 0 | [8]; 10 µM 0 | [9]; 10 µM 0 | [10]; 10 µM 0

CC(C)Nc1cc(-c2c[nH]c(C(=O)N[C@H](CO)c3cccc(Cl)c3)c2)c(Cl)cn1 [Ulixertinib]
inactive: [1]; 10 µM 0 | [2]; 10 µM 0 | [3]; 10 µM 0 | [4]; 10 µM 0 | [5]; 10 µM 0 | [6]; 10 µM 0 | [7]; 10 µM 0 | [8]; 10 µM 0 | [9]; 10 µM 0 | [10]; 10 µM 0

Cc1cccc(-c2[nH]c(CNc3ccccc3F)nc2-c2ccc3ncnn3c2)n1 [Vactosertib (Hydrochloride)]
inactive: [1]; 2.5 µM 0 | [2]; 2.5 µM 0 | [3]; 2.5 µM 0 | [4]; 2.5 µM 0 | [5]; 2.5 µM 0 | [6]; 2.5 µM 0 | [7]; 2.5 µM 0 | [8]; 2.5 µM 0 | [9]; 2.5 µM 0 | [10]; 2.5 µM 0

Retrieved one by one from the entries so far (two):
CC(C)Nc1cc(-c2c[nH]c(C(=O)N[C@H](CO)c3cccc(Cl)c3)c2)c(Cl)cn1 [Ulixertinib]
inactive: [1]; 10 µM 0 | [2]; 10 µM 0 | [3]; 10 µM 0 | [4]; 10 µM 0 | [5]; 10 µM 0 | [6]; 10 µM 0 | [7]; 10 µM 0 | [8]; 10 µM 0 | [9]; 10 µM 0 | [10]; 10 µM 0

Cn1ncc(Cl)c1-c1cc(C(=O)N[C@H](CN)Cc2cccc(F)c2)sc1Cl [Afuresertib (hydrochloride)]
inactive: [1]; 10 µM 0 | [2]; 10 µM 0 | [3]; 10 µM 0 | [4]; 10 µM 0 | [5]; 10 µM 0 | [6]; 10 µM 0 | [7]; 10 µM 0 | [8]; 10 µM 0 | [9]; 10 µM 0 | [10]; 10 µM 0

Next records

C=CC(=O)Nc1cc(Nc2nccc(-c3cn(C4CC4)c4ccccc34)n2)c(OC)cc1N(C)CCN(C)C [Almonertinib]
inactive: [1]; 2.5 µM 0 | [2]; 2.5 µM 0 | [3]; 2.5 µM 0 | [4]; 2.5 µM 0 | [5]; 2.5 µM 0 | [6]; 2.5 µM 0 | [7]; 2.5 µM 0 | [8]; 2.5 µM 0 | [9]; 2.5 µM 0 | [10]; 2.5 µM 0

C[S+]([O-])c1ccc(-c2nc(-c3ccc(F)cc3)c(-c3ccncc3)[nH]2)cc1 (centres undefined)
inactive: [8]; 10 µM 0 | [9]; 10 µM 0 | [10]; 10 µM 0

Cc1cc(Nc2ncc(Cl)c(Nc3ccccc3S(=O)(=O)C(C)C)n2)c(OC(C)C)cc1C1CCNCC1 [Ceritinib dihydrochloride]
inactive: [1]; 2.5 µM 0 | [2]; 2.5 µM 0 | [3]; 2.5 µM 0 | [4]; 2.5 µM 0 | [5]; 2.5 µM 0 | [6]; 2.5 µM 0 | [7]; 2.5 µM 0 | [8]; 2.5 µM 0 | [9]; 2.5 µM 0 | [10]; 2.5 µM 0

C[C@@H](N)[C@H]1CC[C@H](C(=O)Nc2ccncc2)CC1
inactive: [8]; 10 µM 0 | [9]; 10 µM 0 | [10]; 10 µM 0

C=CC(=O)Nc1cc(Nc2nccc(-c3cn(C)c4ccccc34)n2)c(OC)cc1N(C)CCN(C)C [Osimertinib (dimesylate)]
inactive: [8]; 2.5 µM 0 | [9]; 2.5 µM 0 | [10]; 2.5 µM 0

CCS(=O)(=O)N1CCN(c2ccc(Nc3ncc(C(N)=O)c(NC4CC4)n3)cc2)CC1 [Cerdulatinib (hydrochloride)]
inactive: [1]; 10 µM 0 | [2]; 10 µM 0 | [3]; 10 µM 0 | [4]; 10 µM 0 | [5]; 10 µM 0 | [6]; 10 µM 0 | [7]; 10 µM 0 | [8]; 10 µM 0 | [9]; 10 µM 0 | [10]; 10 µM 0

C=CC(=O)Nc1cc(Nc2nccc(-c3cn(C)c4ccccc34)n2)c(OC)cc1N(C)CCN(C)C [Osimertinib mesylate]
inactive: [8]; 2.5 µM 0 | [9]; 2.5 µM 0 | [10]; 2.5 µM 0

Cc1cccc(-c2[nH]c(CNc3ccccc3F)nc2-c2ccc3ncnn3c2)n1 [Vactosertib]
inactive: [1]; 2.5 µM 0 | [2]; 2.5 µM 0 | [3]; 2.5 µM 0 | [4]; 2.5 µM 0 | [5]; 2.5 µM 0 | [6]; 2.5 µM 0 | [8]; 2.5 µM 0 | [9]; 2.5 µM 0 | [10]; 2.5 µM 0

Cn1ncc(Cl)c1-c1cc(C(=O)N[C@H](CN)Cc2cccc(F)c2)sc1Cl [Afuresertib]
inactive: [1]; 10 µM 0 | [2]; 10 µM 0 | [3]; 10 µM 0 | [4]; 10 µM 0 | [5]; 10 µM 0 | [6]; 10 µM 0 | [7]; 10 µM 0 | [8]; 10 µM 0 | [9]; 10 µM 0 | [10]; 10 µM 0

CNc1ncc2cc(-c3ccc(-c4cccc(C)n4)cc3Cl)c(=O)n(C[C@H]3OC[C@H](N)CO3)c2n1
inactive: [1]; 10 µM 0 | [2]; 10 µM 0 | [3]; 10 µM 0 | [4]; 10 µM 0 | [5]; 10 µM 0 | [6]; 10 µM 0 | [7]; 10 µM 0 | [8]; 10 µM 0 | [9]; 10 µM 0 | [10]; 10 µM 0

COc1cc2nccc(Nc3cc(OC)c(OC)c(OC)c3)c2cc1OC [GAK inhibitor 49]
inactive: [1]; 10 µM 0 | [2]; 10 µM 0 | [3]; 10 µM 0 | [4]; 10 µM 0 | [5]; 10 µM 0 | [6]; 10 µM 0 | [7]; 10 µM 0 | [8]; 10 µM 0 | [9]; 10 µM 0 | [10]; 10 µM 0

CCCCCCCCc1ccc(CCC(N)(CO)CO)cc1 [Fingolimod]
inactive: [1]; 2.5 µM 0 | [2]; 2.5 µM 0 | [3]; 2.5 µM 0 | [4]; 2.5 µM 0 | [5]; 2.5 µM 0 | [6]; 2.5 µM 0 | [7]; 2.5 µM 0 | [8]; 2.5 µM 0 | [9]; 2.5 µM 0 | [10]; 2.5 µM 0

C#Cc1cccc(Nc2ncnc3cc(OCCOC)c(OCCO)cc23)c1 [Desmethyl Erlotinib (hydrochloride)]
inactive: [1]; 10 µM 0 | [2]; 10 µM 0 | [3]; 10 µM 0 | [4]; 10 µM 0 | [5]; 10 µM 0 | [6]; 10 µM 0 | [7]; 10 µM 0 | [8]; 10 µM 0 | [9]; 10 µM 0 | [10]; 10 µM 0
